Test results reported in the supplement of paper PMC10331698.
± gives the standard deviation of the averaged measurements. Most values lie at the level of the controls, where differences are scatter.

What was measured:
Assay in all cases: level (log10 ratio to DMSO vehicle control); higher = higher biomarker level / cell amount than vehicle control
[1] = compound: FC(F)(F)COC(OCC(F)(F)F)OCC(F)(F)F [tris(Trifluoroethoxy)methane] (in DMSO); settings: 2200 nM
Description: (§1)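 BioMAP Diversity Plus panel of 12 human primary cell co-culture systems (3C, 4H, LPS, SAg, BT, BF4T, BE3C, CASM3C, HDF3CGF, KF3CT, MyoF, Mphg). Compounds were added 1 h before stimulation and left for 24 h (MyoF 48 h; BT 72 h for soluble read-outs or 6 d for IgG). Biomarkers were read by ELISA, cytotoxicity by SRB, PBMC viability and proliferation by Alamar Blue. Each well value was divided by the mean of 8 DMSO control wells on the same plate and log10 transformed; duplicate blinded samples were tested at 4 concentrations.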

[2] = compound: OCCCC(F)(F)C(F)(F)C(F)(F)C(F)(F)C(F)(F)C(F)(F)C(F)(F)C(F)(F)F [3-(Perfluorooctyl)propanol] (in DMSO); settings: 2200 nM
Description: as §1

[3] = compound: OCC(F)(F)C(F)(F)C(F)(F)C(F)(F)C(F)(F)C(F)(F)F [6:1 Fluorotelomer alcohol] (in DMSO); settings: 2200 nM
Description: as §1

[4] = compound: O=C(O)C(F)(F)C(F)(F)C(F)(F)OC(F)(C(F)(F)F)C(F)(F)F [Perfluoro-4-isopropoxybutanoic acid] (in DMSO); settings: 2200 nM
Description: as §1

[5] = compound: FC(F)(F)C(F)(F)C(F)(F)C(F)(F)CCI [1H,1H,2H,2H-Perfluorohexyl iodide] (in DMSO); settings: 2200 nM
Description: as §1

Perfluorohexanoic acid = compound: O=C(O)C(F)(F)C(F)(F)C(F)(F)C(F)(F)C(F)(F)F [Perfluorohexanoic acid] (in DMSO)
Description: as §1

[6] = compound: O=C(O)C(F)(OC(F)(F)C(F)(F)C(F)(F)F)C(F)(F)F [Ammonium perfluoro-2-methyl-3-oxahexanoate] (in Water)
Description: as §1

[7] = compound: OCC(F)(F)OC(F)(F)C(F)(F)OC(F)(F)CO [1H,1H,8H,8H-Perfluoro-3,6-dioxaoctane-1,8-diol] (in DMSO); settings: 2200 nM
Description: as §1

[8] = compound: O=C(O)C(F)(OC(F)(F)C(F)(OC(F)(F)C(F)(OC(F)(F)C(F)(F)C(F)(F)F)C(F)(F)F)C(F)(F)F)C(F)(F)F [Perfluoro-(2,5,8-trimethyl-3,6,9-trioxadodecanoic)acid] (in DMSO); settings: 370 nM
Description: as §1

[9] = compound: CNS(=O)(=O)C(F)(F)C(F)(F)C(F)(F)C(F)(F)C(F)(F)C(F)(F)C(F)(F)C(F)(F)F [N-Methylperfluorooctanesulfonamide] (in DMSO); settings: 2200 nM
Description: as §1

[10] = compound: OCC(F)(F)C(F)(F)C(F)(F)C(F)(F)C(F)(F)C(F)(F)CO [1H,1H,8H,8H-Perfluorooctane-1,8-diol] (in DMSO); settings: 2200 nM
Description: as §1

[11] = compound: O=C(O)CCC(F)(F)C(F)(F)C(F)(F)F [3:3 Fluorotelomer carboxylic acid] (in DMSO); settings: 2200 nM
Description: as §1

[12] = compound: O=S(=O)(O)C(F)(F)C(F)(F)C(F)(F)C(F)(F)F [Perfluorobutanesulfonic acid] (in DMSO)
Description: as §1

Hexafluoroglutaric acid = compound: O=C(O)C(F)(F)C(F)(F)C(F)(F)C(=O)O [Hexafluoroglutaric acid] (in DMSO)
Description: as §1

[13] = compound: C=C(C)C(=O)OCCC(F)(F)C(F)(F)C(F)(F)C(F)(F)C(F)(F)C(F)(F)F [6:2 Fluorotelomer methacrylate] (in DMSO); settings: 2200 nM
Description: as §1

[14] = compound: OCC(F)(F)C(F)(F)C(F)(F)C(F)F [1H,1H,5H-Perfluoropentanol] (in DMSO); settings: 2200 nM
Description: as §1

[15] = compound: FC(F)(F)C(F)(F)CNCC(F)(F)C(F)(F)F [Bis(1H,1H-perfluoropropyl)amine] (in DMSO); settings: 2200 nM
Description: as §1

| Test System | level (log10) [1] | level (log10) [2] | level (log10) [3] | level (log10) [4] | level (log10) [5] | level (log10) (Perfluorohexanoic acid; 2200 nM) | level (log10) (Perfluorohexanoic acid; 6700 nM) | level (log10) (Perfluorohexanoic acid; 20000 nM) | level (log10) (Perfluorohexanoic acid; 60000 nM) | level (log10) ([6]; 2200 nM) | level (log10) ([6]; 6700 nM) | level (log10) ([6]; 20000 nM) | level (log10) ([6]; 60000 nM) | level (log10) [7] | level (log10) [8] | level (log10) [9] | level (log10) [10] | level (log10) [11] | level (log10) ([12]; 2200 nM) | level (log10) ([12]; 6700 nM) | level (log10) ([12]; 20000 nM) | level (log10) ([12]; 60000 nM) | level (log10) (Hexafluoroglutaric acid; 2200 nM) | level (log10) (Hexafluoroglutaric acid; 6700 nM) | level (log10) (Hexafluoroglutaric acid; 20000 nM) | level (log10) (Hexafluoroglutaric acid; 60000 nM) | level (log10) [13] | level (log10) [14] | level (log10) [15] |
| --- | --- | --- | --- | --- | --- | --- | --- | --- | --- | --- | --- | --- | --- | --- | --- | --- | --- | --- | --- | --- | --- | --- | --- | --- | --- | --- | --- | --- | --- |
| BT:PBMC Cytotoxicity | 0.004 ± 0.027 | 0.017 ± 0.025 | 0.0315 ± 0.0021 | -0.0145 ± 0.005 | -0.002 ± 0.017 | 0.005 ± 0.042 | -0.024 ± 0.028 | -0.0405 ± 0.028 | 0.004 ± 0.0057 | -0.0955 ± 0.025 | -0.083 ± 0.016 | -0.095 ± 0.0099 | -0.0905 ± 0.023 | 0.013 ± 0.011 | 0.009 ± 0.04 | 0.007 ± 0.0071 | 0.0285 ± 0.0064 | 0.0085 ± 0.016 | 0.033 ± 0.045 | 0.03 ± 0.044 | 0.039 ± 0.027 | 0.057 ± 0.0057 | 0.0125 ± 0.03 | 0.019 ± 0.027 | -0.017 ± 0.0071 | 0.005 ± 0.014 | 0.012 | -0.0115 ± 0.023 | 0.0285 ± 0.00071 |
| lMphg:sIL-10 | 0.002 ± 0.0014 | -0.0005 ± 0.05 | 0.0085 ± 0.1 | 0.0085 ± 0.0092 | -0.0685 ± 0.071 | -0.041 ± 0.083 | -0.0285 ± 0.0092 | -0.0375 ± 0.046 | -0.0945 ± 0.021 | -0.332 ± 0.037 | -0.36 ± 0.035 | -0.328 ± 0.018 | -0.467 ± 0.13 | 0.069 ± 0.023 | -0.004 ± 0.0057 | -0.0355 ± 0.005 | -0.0535 ± 0.069 | 0.029 ± 0.061 | 0.019 ± 0.1 | 0.043 ± 0.099 | -0.0475 ± 0.032 | 0.0065 ± 0.049 | -0.0405 ± 0.07 | -0.0745 ± 0.037 | -0.0775 ± 0.056 | -0.102 ± 0.0078 | 0.0765 ± 0.016 | -0.0205 ± 0.042 | -0.061 ± 0.021 |
| HDF3CGF:Collagen III | -0.008 ± 0.038 | -0.009 ± 0.037 | -0.012 ± 0.071 | 0.008 ± 0.0014 | 0.014 ± 0.0099 | 0.044 ± 0.016 | 0.0515 ± 0.013 | 0.0305 ± 0.0092 | -0.0245 ± 0.071 | 0.0165 ± 0.0035 | -0.0055 ± 0.0064 | -0.015 ± 0.041 | -0.0705 ± 0.028 | 0.0065 ± 0.012 | -0.081 ± 0.017 | -0.065 ± 0.02 | -0.016 ± 0.013 | -0.005 ± 0.0085 | -0.0055 ± 0.011 | -0.013 ± 0.048 | 0.035 ± 0.016 | 0.047 ± 0.016 | 0.006 ± 0.03 | -0.0065 ± 0.015 | -0.0275 ± 0.00071 | -0.0125 ± 0.00071 | -0.0185 ± 0.022 | -0.03 ± 0.03 | 0.037 ± 0.04 |
| LPS:sPGE2 | 0.008 ± 0.011 | -0.038 ± 0.024 | 0.092 ± 0.017 | -0.0255 ± 0.011 | -0.021 ± 0.0042 | 0.0035 ± 0.036 | 0.025 ± 0.052 | 0.013 ± 0.021 | -0.009 ± 0.041 | 0.129 ± 0.017 | 0.093 ± 0.061 | 0.0575 ± 0.039 | 0.0765 ± 0.018 | -0.026 ± 0.028 | -0.051 ± 0.018 | 0.0295 ± 0.042 | -0.006 ± 0.034 | -0.02 ± 0.048 | 0.011 ± 0.011 | 0.0595 ± 0.011 | 0.041 ± 0.051 | 0.0355 ± 0.043 | -0.062 ± 0.011 | -0.0265 ± 0.028 | -0.039 ± 0.031 | -0.0185 ± 0.069 | 0.053 ± 0.025 | 0.0185 ± 0.0021 | -0.0055 ± 0.015 |
